What was measured:
[1] = ΔDmin vs material 1.1 after colour negative development (removal of yellow filter dye during processing)
Experimental: (§1) A colour photographic recording material for colour negative development was produced by applying the following layers in the stated sequence onto a polyethylene naphthalate (PEN) film base having a thickness of 90 μm and provided on the front side with a coupling layer and on the reverse side with a magnetic recording layer (quantities in g/m^2):
(§2) After exposure with a grey wedge, development was performed in accordance with The British Journal of Photography, 1974, pages 597 and 598.

[2] = Change in green sensitivity ΔE(green) after 12 months' storage under normal room conditions
Experimental: as §1, §2
(§3) The sensitometric differences which are also described in table 1 were found.
**after 12 months' storage under normal room conditions

[3] = Change in blue sensitivity ΔE(blue) after 7 days' storage at 35° C./90% relative humidity (dye diffusion)
Experimental: as §1, §2, §3
***after 7 days' storage at 35° C./90% relative humidity

[4] = dye incorporated as SPD (solid particle dispersion) in 9th layer
[5] = dye incorporated as OFD (dye emulsion) in 9th layer

Row | SMILES | ΔDmin vs 1.1 [1, 4] | ΔE (green) ([2]; SPD) | DE (blue) ([3]; SPD) | ΔDmin vs 1.1 [1, 5] | ΔE (green) ([2]; OFD) | DE (blue) ([3]; OFD)
1 | CN(C)c1ccc(C=C(C#N)c2nc3cc(C(=O)O)ccc3o2)cc1 [Dye I-1] | 0.00 | -0.02 log H units | -0.07 |  |  | 
2 | Cc1cc(N(CC(=O)OC(C)COC(C)COC(C)(C)C)CC(=O)OC(C)COC(C)COC(C)(C)C)ccc1C=C(C#N)c1nc2cc(C(=O)O)ccc2o1 (stereo not drawn) [Dye I-6] |  |  |  | 0.01 | -0.03 log H units | -0.05
3 | CCOCCOCCN(CCOCCOCC)c1ccc(C=C(C#N)c2nc3cc(S(=O)(=O)NC(=O)CC)ccc3o2)cc1 [Dye I-10] |  |  |  | 0.01 | -0.02 log H units | -0.03
4 | CCOCCOCCN(CCOCCOCC)c1ccc(C=C(C#N)c2nc3cc(S(=O)(=O)NC(=O)CC)ccc3s2)cc1 [Dye I-22] |  |  |  | 0.00 | -0.03 log H units | -0.04
5 | CCCCOC(=O)CN(CC(=O)OCCCC)c1ccc(C=C(C#N)C(=O)c2ccc(NS(C)(=O)=O)cc2)c(C)c1 [GF-2] |  |  |  | 0.01 | -0.13 log H units | -0.15
6 | CCCCS(=O)(=O)Nc1ccc(C2=C(C#N)C(=O)OC2=Cc2ccco2)cc1 [GF-3] | 0.00 | -0.02 log H units | -0.21 | 0.00 | -0.03 log H units | -0.25
7 | CCCCCCCCCCCCCCCCS(=O)(=O)Nc1ccc2nc(C(C#N)=Cc3ccc(N(CC)CC)cc3C)sc2c1 [GF-4] |  |  |  | 0.65 | -0.02 log H units | -0.02
8 | CCCCCCCCCCCCNc1cc(C)c(C=C(C#N)c2nc3ccc(NS(C)(=O)=O)cc3o2)cc1C [GF-5] |  |  |  | 0.62 | -0.02 log H units | -0.03

From patent US6057085A, “Color photographic recording material” (Agfa-Gevaert NV, priority 1997, dated 2000)
